Record: PubChem BioAssay AID1259405 (NCATS, 2018)

Assay: 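Silenced genes that increase secreted GFP made by CHO cells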 (primary screen)
Cells: Chinese hamster CHO-K1 ovary cells with stable secreted eGFP expression
Knock-down reagent: single siRNA against mouse genes, 0.8 pmol siRNA per well (2 µl of 400 nM stock)
Duration: 3 days
Measured: 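Percent of the per-plate non-targeting control median for intracellular GFP per well by laser scanning cytometry and for cell viability by ATP luminescence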
Scale: GFP, % of control: higher = more GFP per well, higher productivity; viability (ATP), % of control: higher = more viable cells (more ATP)
Call rule: 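a knock-down is called active if GFP reaches 120% or more of non-targeting control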
The deposit covers about 50,000 reagents; below is a random part of them. About 4,000 of all reagents (8%) were called active. 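Mouse siRNA library applied to hamster cells; one well for each siRNA.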 Unmarked entries are inactive. The numbers tell different reagents against one gene apart.

gene knocked down | reagent | GFP, % of control | viability (ATP), % of control
Rnf222 | 1 | 125 (active) | 76
Rnf222 | 2 | 17 | 20.9
Rnf222 | 3 | 32.5 | 35.9
Cct7 | 1 | 87.9 | 83.8
Cct7 | 2 | 47.6 | 42.7
Cct7 | 3 | 80.7 | 41
Enkd1 | 1 | 98.4 | 101
Enkd1 | 2 | 38.3 | 18.4
Enkd1 | 3 | 108 | 80.8
Ctsm | 1 | 56.2 | 114
Ctsm | 2 | 81.9 | 74.3
Ctsm | 3 | 52.5 | 73.2
Rgs7 | 1 | 107 | 105
Rgs7 | 2 | 118 | 63.5
Rgs7 | 3 | 85 | 69.8
Rpl19 | 1 | 47.8 | 49.4
Rpl19 | 2 | 77.4 | 49.3
Rpl19 | 3 | 38.8 | 22.1
Cstf3 | 1 | 85.6 | 61.2
Cstf3 | 2 | 62 | 46.8
Cstf3 | 3 | 105 | 90.2
Ndrg1 | 1 | 108 | 84.3
Ndrg1 | 2 | 46.4 | 32.8
Ndrg1 | 3 | 56.5 | 76.4
Ndrg1 | 4 | 40.9 | 54.8
Ndrg1 | 5 | 80.7 | 71.6
Ndrg1 | 6 | 78.8 | 51.5
Tuft1 | 1 | 86.4 | 86.8
Tuft1 | 2 | 80.8 | 102
Tuft1 | 3 | 85.8 | 84.9
Klra2 | 1 | 40.4 | 86.4
Klra2 | 2 | 98.6 | 78.1
Trappc3 | 1 | 60.5 | 68.7
Trappc3 | 2 | 136 (active) | 93.4
Trappc3 | 3 | 100 | 72.4
Adam21 | 1 | 88.8 | 78.8
Adam21 | 2 | 127 (active) | 83.6
Adam21 | 3 | 95.4 | 92.7
Nek3 | 1 | 62.2 | 76.4
Hao1 | 1 | 110 | 96.6
Hao1 | 2 | 101 | 96.5
Hao1 | 3 | 88.5 | 62.2
Gjd4 | 1 | 164 (active) | 84.5
Gjd4 | 2 | 58.8 | 74
Gjd4 | 3 | 37.8 | 52
Jsrp1 | 1 | 35.7 | 70.6
Jsrp1 | 2 | 71.8 | 23.8
Jsrp1 | 3 | 81.5 | 79.3
Zfp456 | 1 | 23.7 | 61.2
Zfp456 | 2 | 74.5 | 76.6
Zfp456 | 3 | 97.7 | 73
Dipk2b | 1 | 84.4 | 89.2
Dipk2b | 2 | 39.9 | 42.3
Dipk2b | 3 | 106 | 110
Adss2 | 1 | 81.3 | 89.8
Adss2 | 2 | 109 | 109
Adss2 | 3 | 107 | 101
Pdzd4 | 1 | 33.4 | 36.4
Pdzd4 | 2 | 60.3 | 72
Pdzd4 | 3 | 71.8 | 119
Ccdc69 | 1 | 79.7 | 82.2
Ccdc69 | 2 | 87.9 | 80.9
Ccdc69 | 3 | 80.6 | 100
Pparg | 1 | 62.4 | 87.6
Pparg | 2 | 51.5 | 80.9
Pparg | 3 | 124 (active) | 112
Cldn19 | 1 | 123 (active) | 107
Cldn19 | 2 | 97.3 | 76.5
Cldn19 | 3 | 86.1 | 115
Ddx31 | 1 | 61.1 | 66.7
Ddx31 | 2 | 120 | 74.1
Ddx31 | 3 | 105 | 77.9
Pnma3 | 1 | 39.2 | 30.2
Pnma3 | 2 | 102 | 84.2
Pnma3 | 3 | 104 | 71.5
Rpain | 1 | 50.1 | 59.2
Rpain | 2 | 44 | 78.5
Rpain | 3 | 107 | 118
Gmppb | 1 | 103 | 70.1
Gmppb | 2 | 83.1 | 116
Gmppb | 3 | 62.5 | 84.1
Ldb2 | 1 | 142 (active) | 125
Ldb2 | 2 | 38.8 | 39.7
Ldb2 | 3 | 96.6 | 99.1

13 entries already listed, arranged by “GFP, % of control”, ascending:
gene knocked down | reagent | GFP, % of control | viability (ATP), % of control
Jsrp1 | 1 | 35.7 | 70.6
Gjd4 | 3 | 37.8 | 52
Gjd4 | 2 | 58.8 | 74
Nek3 | 1 | 62.2 | 76.4
Jsrp1 | 2 | 71.8 | 23.8
Hao1 | 3 | 88.5 | 62.2
Adam21 | 1 | 88.8 | 78.8
Adam21 | 3 | 95.4 | 92.7
Trappc3 | 3 | 100 | 72.4
Hao1 | 2 | 101 | 96.5
Hao1 | 1 | 110 | 96.6
Adam21 | 2 | 127 (active) | 83.6
Gjd4 | 1 | 164 (active) | 84.5
